{
  "sequences": {"note": "By UniProt entry, the sequences of proteins in these tests, tags left out. Where a name states a change or a piece, a line headed by the entry shows the natural chain unless it says otherwise.", "UniProt P18054": "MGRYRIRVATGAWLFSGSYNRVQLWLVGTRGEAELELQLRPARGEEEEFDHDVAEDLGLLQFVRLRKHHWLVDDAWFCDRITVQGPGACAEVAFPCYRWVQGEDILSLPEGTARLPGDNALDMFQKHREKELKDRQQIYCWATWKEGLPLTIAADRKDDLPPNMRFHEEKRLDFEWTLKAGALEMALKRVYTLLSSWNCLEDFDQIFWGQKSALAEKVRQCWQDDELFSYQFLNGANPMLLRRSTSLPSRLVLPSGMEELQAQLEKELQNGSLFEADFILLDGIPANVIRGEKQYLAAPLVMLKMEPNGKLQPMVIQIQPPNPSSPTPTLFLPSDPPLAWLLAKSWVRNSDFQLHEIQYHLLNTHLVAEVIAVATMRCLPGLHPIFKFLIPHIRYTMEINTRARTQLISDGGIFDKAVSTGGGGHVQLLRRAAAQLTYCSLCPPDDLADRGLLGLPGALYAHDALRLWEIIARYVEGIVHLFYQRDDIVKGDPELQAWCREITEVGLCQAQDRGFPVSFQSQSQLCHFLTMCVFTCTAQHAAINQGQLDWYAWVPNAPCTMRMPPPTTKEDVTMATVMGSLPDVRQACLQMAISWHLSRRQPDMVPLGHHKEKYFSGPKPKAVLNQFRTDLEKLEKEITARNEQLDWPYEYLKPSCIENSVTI"},
  "source": "PubChem BioAssay AID1671190",
  "about": "(National Center for Advancing Translational Sciences (NCATS), 2021)",
  "note": "Hit rate of the full screen: of about 580,000 compounds, about 6,100 (1.1%) were called active. Inconclusive results, whose numbers are uncertain, are shown with a selection of clear calls. The call rests on the fitted dose curve; in most records, active means well fitted inhibition curve with a large enough effect; inconclusive means small, poorly fitted or top-dose-only effect, or another doubt; inactive means no such curve, though single readings can be large or run the other way. Potencies beside an inconclusive call are fits to weak or partial responses and may not hold up. Potency means the concentration at half of the fitted maximal effect.",
  "data": [
    {"biological_target": "Polyunsaturated fatty acid lipoxygenase ALOX12 (Homo sapiens) (UniProt P18054)", "experiment": "Primary qHTS assay for inhibitors of human arachidonate 12S-lipoxygenase (ALOX12): Round 2", "conditions": "purified 12hLO, xylenol orange hydroperoxide absorbance; series mostly up to 108 µM", "method_in_brief": "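Purified human 12hLO (150 nM final) in 25 mM Hepes, 0.01% Triton X-100, pH 7.0 was preincubated 15 min at room temperature with compound. Then 40 uM arachidonic acid was added, 30 min. Hydroperoxide was read by Fe-XO absorbance ratio 573/405 nm.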", "values": [
      {"smiles": "Cc1cc(C=O)c(C)c2c1[nH]c1ccccc12", "Potency": "inconclusive: 2.24 µM [inhibitor, full curve, poor fit]"},
      {"smiles": "COc1cc(C2CC(=O)Nc3nc(N4CCCCC4)sc32)ccc1OCC(N)=O", "note": "(stereo not given)", "Potency": "inconclusive: 56.2 µM [inhibitor, partial curve, poor fit]"},
      {"smiles": "CCCCn1c(=N)n(CC(O)c2ccccc2)c2ccccc21", "note": "(stereo not given)", "Potency": "inactive"},
      {"smiles": "CCn1c(=O)c2c(cnn2C)c2ccccc21", "Potency": "inconclusive: 50.1 µM [inhibitor, partial curve]"},
      {"smiles": "COc1cc(C)c(C)cc1S(=O)(=O)N1CCN(Cc2ccc3c(c2)OCO3)CC1", "Potency": "inconclusive: 31.6 µM [inhibitor, partial curve, poor fit]"},
      {"smiles": "CC(C)[C@@H]1CN(C(=O)c2scc3c2CCCC3)C[C@H]1NS(C)(=O)=O", "Potency": "inactive"},
      {"smiles": "O=C(Nc1ccc(F)c(F)c1F)c1ccccc1-c1ccccc1", "Potency": "inconclusive: 56.2 µM [inhibitor, partial curve, poor fit]"},
      {"smiles": "c1ccc2c(c1)NC1(CCCCCC1)n1c-2nc2ccccc21", "Potency": "inactive"},
      {"smiles": "O=C(c1ccco1)N1CCC2(CC1)CN(c1ccccc1)C2", "Potency": "inconclusive: 28.2 µM [inhibitor, single point]"},
      {"smiles": "O=C(CCCCn1c(=O)[nH]c2ccccc2c1=O)N1CCN(c2ncccn2)CC1", "Potency": "inconclusive: 100 µM [inhibitor, single point]"},
      {"smiles": "CNc1ncncc1-c1ccccc1OC", "Potency": "inconclusive: 39.8 µM [inhibitor, partial curve, poor fit]"},
      {"smiles": "Cn1c(SC2C(=O)CC(C)(C)CC2=O)nnc1-c1ccco1", "Potency": "inconclusive: 5.01 µM [inhibitor, full curve, poor fit]"},
      {"smiles": "CCN1CCN(S(=O)(=O)c2ccc(Cl)c(C(=O)N(CC)Cc3ccccc3)c2)CC1", "Potency": "inconclusive: 50.1 µM [inhibitor, partial curve, poor fit]"},
      {"smiles": "COc1ccc(-c2csc(NC(=O)C3CC(=O)N(Cc4ccccc4)C3)n2)cc1OC", "note": "(stereo not given)", "Potency": "inconclusive: 126 µM [inhibitor, single point]"},
      {"smiles": "Cc1ccc(N2C(N)=C(C#N)C(c3cccnc3)C3=C2CCCC3=O)cc1", "note": "(stereo not given)", "Potency": "inconclusive: 50.1 µM [inhibitor, partial curve, poor fit]"},
      {"smiles": "C[C@@H]1CCCCO[C@@H](CN(C)S(=O)(=O)c2cn(C)cn2)[C@@H](C)CN([C@H](C)CO)C(=O)c2cc(NC(=O)Nc3ccc(C(F)(F)F)cc3)ccc2O1", "Potency": "inconclusive: 79.4 µM [inhibitor, partial curve, poor fit]"},
      {"smiles": "Cc1cccc(C)c1NC(=S)Nc1ccccc1C(=O)NCc1ccco1", "Potency": "inactive"},
      {"smiles": "O=C(O)/C=C/C(=O)Nc1ccc(-n2ccc(C(F)(F)F)n2)cc1", "Potency": "inconclusive: 89.1 µM [inhibitor, partial curve, poor fit]"},
      {"smiles": "Cc1ccc(C2NC(=O)N(CC(=O)Nc3ccc(F)c(F)c3)C3=C2C(=O)OC3)cc1", "note": "(stereo not given)", "Potency": "inconclusive: 31.6 µM [inhibitor, partial curve]"},
      {"smiles": "O=C(COC(=O)C1CCN(c2ccc(C(F)(F)F)cn2)CC1)c1ccccc1Cl", "Potency": "inconclusive: 89.1 µM [inhibitor, single point]"},
      {"smiles": "CCCn1c(N)c(N(CCOC)C(=O)COC(=O)c2ccccc2NCCO)c(=O)[nH]c1=O", "Potency": "inconclusive: 31.6 µM [inhibitor, partial curve, poor fit]"},
      {"smiles": "CN1CCN(CC2(N)CCCCC2)CC1", "Potency": "inconclusive: 7.08 µM [inhibitor, full curve]"},
      {"smiles": "CC(NC(=O)c1cccs1)C(=O)NC1=NCCS1", "note": "(stereo not given)", "Potency": "inconclusive: 35.5 µM [inhibitor, partial curve, poor fit]"},
      {"smiles": "CCC(/C=C/[C@@H](C)[C@H]1CCC2C3CC=C4C[C@@H](O)CC[C@]4(C)C3CC[C@@]21C)C(C)C", "note": "(stereo not given in full)", "Potency": "inactive"},
      {"smiles": "Cn1nccc1C(=O)N1CCCC(Cc2noc(-c3ccccn3)n2)C1", "note": "(stereo not given)", "Potency": "inactive"},
      {"smiles": "CC(NC(=O)c1csc2ccccc12)C1CC2CCC1C2", "note": "(stereo not given)", "Potency": "inconclusive: 50.1 µM [inhibitor, partial curve, poor fit]"},
      {"smiles": "Cc1cnc(SCc2ccccn2)nc1C1CCCN(C(=O)c2ccc3c(c2)OCO3)C1", "note": "(stereo not given)", "Potency": "inconclusive: 112 µM [inhibitor, single point]"},
      {"smiles": "Cc1cc(=O)n(CC(=O)Nc2ccc(C(C)C)cc2)c(N2CCc3ccccc3C2)n1", "Potency": "inconclusive: 12.6 µM [inhibitor, full curve, poor fit]"},
      {"smiles": "CC(CCN1CCC(n2nccc2NC(=O)c2ccccc2Cl)CC1)c1ccccc1", "note": "(stereo not given)", "Potency": "inconclusive: 112 µM [inhibitor, partial curve, poor fit]"},
      {"smiles": "CCOc1nc(-c2ccc(C)cc2)ccc1-c1noc(COC)n1", "Potency": "inactive"},
      {"smiles": "CCCCn1c(Cc2ccccc2)n[nH]c1=S", "Potency": "inconclusive: 56.2 µM [inhibitor, partial curve, poor fit]"},
      {"smiles": "CC1=CCC2C(C)(C)C(O)CCC2(C)C1COc1ccc2ccc(=O)oc2c1", "note": "(stereo not given)", "Potency": "inconclusive: 0.501 µM [inhibitor, full curve, poor fit]"},
      {"smiles": "COc1ccccc1Cc1c(-c2ccco2)nc2c3ccccc3ccn12", "Potency": "inconclusive: 56.2 µM [inhibitor, partial curve, poor fit]"},
      {"smiles": "Cc1ccccc1C1C(C#N)=C(N)OC2=C1C(=O)CC(C)(C)C2", "note": "(stereo not given)", "Potency": "inconclusive: 35.5 µM [inhibitor, partial curve, poor fit]"},
      {"smiles": "O=C(/C=C/c1ccc(Cl)c(Cl)c1)NC1CCC(O)CC1", "note": "(stereo not given)", "Potency": "inactive"},
      {"smiles": "COc1cccc(C(c2nnnn2Cc2ccco2)N2CCN(c3cccc(C)c3C)CC2)c1OC", "note": "(stereo not given)", "Potency": "inactive"},
      {"smiles": "c1cc2c(cc1CN1CCOCC1)OCO2", "Potency": "inconclusive: 50.1 µM [inhibitor, partial curve, poor fit]"},
      {"smiles": "COc1ccc(-c2nc(CSCC(=O)NCCCN3CCOCC3)c(C)o2)cc1OC", "Potency": "inconclusive: 3.55 µM [inhibitor, full curve, poor fit]"},
      {"smiles": "Cc1ccc(-c2nc(N)sc2CC(=O)OCC(=O)N(CCC#N)c2ccc(F)cc2)cc1", "Potency": "inactive"},
      {"smiles": "Oc1ccc(N2CCN(Cc3ccc(OCCCN4CCCCC4)cc3)CC2)cc1", "Potency": "inconclusive: 39.8 µM [inhibitor, partial curve, poor fit]"}
    ]}
  ]
}
